What all share (assay): proximity labelling; BioID: A2780 cells stably expressing mycBirA*-Rab baits (mycBirA* alone as control), 1 uM biotin for 16 h; lysis in 0.4% SDS, 500 mM NaCl buffer; streptavidin microspheres; LC-MS/MS with label-free quantification, four replicates; high-confidence list by SAINTexpress (BFDR<=0.05), longlist by >2-fold enrichment; biotin-modified peptides also scored
Assay [1] has as its target mycBirA*–Rab11a (UniProt P62491).
In assay [2] the target is T1, mycBirA*–Rab25 (UniProt P57735).
T1 sequence: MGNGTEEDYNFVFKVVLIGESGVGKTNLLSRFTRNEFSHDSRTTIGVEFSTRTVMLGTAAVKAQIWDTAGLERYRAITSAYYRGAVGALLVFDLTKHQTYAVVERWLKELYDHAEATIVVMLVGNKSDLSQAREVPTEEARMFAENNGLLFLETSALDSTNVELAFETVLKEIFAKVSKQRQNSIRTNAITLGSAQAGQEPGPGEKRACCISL

By UniProt entry, the sequences of proteins in these tests, tags left out.
UniProt P62491: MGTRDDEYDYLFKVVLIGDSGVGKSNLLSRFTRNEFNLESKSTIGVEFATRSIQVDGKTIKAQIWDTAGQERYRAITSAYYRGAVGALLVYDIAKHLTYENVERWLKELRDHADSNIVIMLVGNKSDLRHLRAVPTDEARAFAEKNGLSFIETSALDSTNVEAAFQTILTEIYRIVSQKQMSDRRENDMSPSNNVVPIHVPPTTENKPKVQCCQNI
UniProt P20338: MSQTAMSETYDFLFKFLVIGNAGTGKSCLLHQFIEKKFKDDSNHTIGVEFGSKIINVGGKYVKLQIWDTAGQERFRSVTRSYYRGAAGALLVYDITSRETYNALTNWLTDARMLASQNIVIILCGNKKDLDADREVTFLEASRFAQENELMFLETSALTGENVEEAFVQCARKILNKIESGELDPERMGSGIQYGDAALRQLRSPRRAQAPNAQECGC
UniProt Q7L804: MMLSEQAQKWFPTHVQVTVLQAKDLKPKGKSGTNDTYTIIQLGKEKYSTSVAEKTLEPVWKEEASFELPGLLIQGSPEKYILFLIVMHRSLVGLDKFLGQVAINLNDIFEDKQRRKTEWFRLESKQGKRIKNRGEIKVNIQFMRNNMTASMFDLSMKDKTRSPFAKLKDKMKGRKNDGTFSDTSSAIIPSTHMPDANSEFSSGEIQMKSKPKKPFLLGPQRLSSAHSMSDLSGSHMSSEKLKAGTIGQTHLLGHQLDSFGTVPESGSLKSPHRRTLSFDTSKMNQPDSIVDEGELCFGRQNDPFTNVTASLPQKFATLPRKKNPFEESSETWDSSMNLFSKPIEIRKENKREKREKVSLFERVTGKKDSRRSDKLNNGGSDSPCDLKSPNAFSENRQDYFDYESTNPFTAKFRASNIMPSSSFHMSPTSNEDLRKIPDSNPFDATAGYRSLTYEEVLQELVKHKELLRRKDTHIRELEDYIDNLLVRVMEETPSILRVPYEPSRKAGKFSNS
UniProt Q9Y6D6: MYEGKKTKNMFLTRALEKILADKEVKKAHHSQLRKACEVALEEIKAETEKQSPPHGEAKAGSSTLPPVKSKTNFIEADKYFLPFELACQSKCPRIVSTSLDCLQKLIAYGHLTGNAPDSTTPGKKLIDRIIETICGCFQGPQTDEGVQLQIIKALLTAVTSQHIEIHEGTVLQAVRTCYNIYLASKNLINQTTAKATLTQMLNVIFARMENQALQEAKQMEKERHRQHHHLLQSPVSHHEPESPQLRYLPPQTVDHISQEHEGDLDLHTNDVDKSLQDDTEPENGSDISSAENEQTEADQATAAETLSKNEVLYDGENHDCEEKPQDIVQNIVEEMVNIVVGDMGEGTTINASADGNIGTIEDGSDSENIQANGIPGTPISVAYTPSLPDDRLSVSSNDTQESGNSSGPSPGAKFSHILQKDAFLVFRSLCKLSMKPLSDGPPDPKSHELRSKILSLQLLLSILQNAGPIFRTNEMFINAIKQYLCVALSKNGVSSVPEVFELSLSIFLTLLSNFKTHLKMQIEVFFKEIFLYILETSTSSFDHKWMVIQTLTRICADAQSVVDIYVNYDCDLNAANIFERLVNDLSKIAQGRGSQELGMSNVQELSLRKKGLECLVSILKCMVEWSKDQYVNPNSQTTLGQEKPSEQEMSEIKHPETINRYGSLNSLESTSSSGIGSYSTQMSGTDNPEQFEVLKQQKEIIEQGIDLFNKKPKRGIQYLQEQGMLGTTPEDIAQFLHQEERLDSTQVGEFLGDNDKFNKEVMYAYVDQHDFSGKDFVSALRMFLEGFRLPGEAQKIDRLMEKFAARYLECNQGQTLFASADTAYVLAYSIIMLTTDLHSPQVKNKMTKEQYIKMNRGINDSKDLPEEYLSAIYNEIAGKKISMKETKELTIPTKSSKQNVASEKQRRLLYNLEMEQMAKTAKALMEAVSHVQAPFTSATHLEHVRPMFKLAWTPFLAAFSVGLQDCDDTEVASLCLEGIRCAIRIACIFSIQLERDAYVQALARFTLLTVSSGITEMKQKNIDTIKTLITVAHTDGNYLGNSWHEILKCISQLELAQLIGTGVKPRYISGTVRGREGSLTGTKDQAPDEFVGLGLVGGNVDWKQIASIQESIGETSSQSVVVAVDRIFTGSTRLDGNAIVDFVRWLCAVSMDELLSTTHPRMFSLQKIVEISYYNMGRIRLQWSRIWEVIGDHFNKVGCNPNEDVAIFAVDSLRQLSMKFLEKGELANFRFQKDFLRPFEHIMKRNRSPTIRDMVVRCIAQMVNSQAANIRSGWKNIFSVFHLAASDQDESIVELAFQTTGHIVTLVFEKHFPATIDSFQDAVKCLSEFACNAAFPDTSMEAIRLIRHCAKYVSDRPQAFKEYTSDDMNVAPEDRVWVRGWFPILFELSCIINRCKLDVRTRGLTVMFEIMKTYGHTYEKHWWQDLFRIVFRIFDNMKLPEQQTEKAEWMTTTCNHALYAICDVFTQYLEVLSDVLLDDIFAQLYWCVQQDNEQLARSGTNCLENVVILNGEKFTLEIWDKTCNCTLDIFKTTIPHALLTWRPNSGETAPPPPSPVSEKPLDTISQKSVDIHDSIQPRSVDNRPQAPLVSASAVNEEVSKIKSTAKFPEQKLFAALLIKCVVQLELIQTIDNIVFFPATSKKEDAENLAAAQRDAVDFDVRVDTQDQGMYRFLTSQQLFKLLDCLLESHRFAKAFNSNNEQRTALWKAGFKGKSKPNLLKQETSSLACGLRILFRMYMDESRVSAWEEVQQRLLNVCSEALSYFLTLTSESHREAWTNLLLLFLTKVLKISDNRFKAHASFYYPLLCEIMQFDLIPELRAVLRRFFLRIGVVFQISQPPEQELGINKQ
UniProt O00161: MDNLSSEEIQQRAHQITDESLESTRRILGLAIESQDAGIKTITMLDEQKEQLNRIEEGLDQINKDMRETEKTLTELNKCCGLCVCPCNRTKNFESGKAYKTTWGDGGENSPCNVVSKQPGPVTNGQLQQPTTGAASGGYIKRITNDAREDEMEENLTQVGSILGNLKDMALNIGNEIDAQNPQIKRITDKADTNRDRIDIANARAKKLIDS
UniProt Q9UBF8: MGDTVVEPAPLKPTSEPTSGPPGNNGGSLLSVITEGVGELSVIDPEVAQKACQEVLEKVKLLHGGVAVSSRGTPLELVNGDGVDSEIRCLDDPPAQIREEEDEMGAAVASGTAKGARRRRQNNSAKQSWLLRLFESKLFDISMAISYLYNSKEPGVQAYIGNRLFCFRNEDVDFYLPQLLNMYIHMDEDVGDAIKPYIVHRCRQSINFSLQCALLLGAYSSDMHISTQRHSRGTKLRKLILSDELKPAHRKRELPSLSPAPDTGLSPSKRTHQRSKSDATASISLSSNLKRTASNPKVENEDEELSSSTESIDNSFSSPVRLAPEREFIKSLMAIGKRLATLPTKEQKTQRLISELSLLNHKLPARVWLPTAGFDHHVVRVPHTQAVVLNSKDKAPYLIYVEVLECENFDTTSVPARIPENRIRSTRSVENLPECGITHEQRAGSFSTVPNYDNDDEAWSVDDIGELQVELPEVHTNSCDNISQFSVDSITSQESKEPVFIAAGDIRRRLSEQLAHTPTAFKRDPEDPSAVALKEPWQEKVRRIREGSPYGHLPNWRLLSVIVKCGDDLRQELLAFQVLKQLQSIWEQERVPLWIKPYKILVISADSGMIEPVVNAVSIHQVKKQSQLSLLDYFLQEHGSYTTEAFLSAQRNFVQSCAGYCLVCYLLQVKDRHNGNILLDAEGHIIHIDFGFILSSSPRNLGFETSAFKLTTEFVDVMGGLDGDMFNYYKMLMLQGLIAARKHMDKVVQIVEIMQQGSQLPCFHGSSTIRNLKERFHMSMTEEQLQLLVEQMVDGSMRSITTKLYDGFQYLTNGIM
UniProt Q13596: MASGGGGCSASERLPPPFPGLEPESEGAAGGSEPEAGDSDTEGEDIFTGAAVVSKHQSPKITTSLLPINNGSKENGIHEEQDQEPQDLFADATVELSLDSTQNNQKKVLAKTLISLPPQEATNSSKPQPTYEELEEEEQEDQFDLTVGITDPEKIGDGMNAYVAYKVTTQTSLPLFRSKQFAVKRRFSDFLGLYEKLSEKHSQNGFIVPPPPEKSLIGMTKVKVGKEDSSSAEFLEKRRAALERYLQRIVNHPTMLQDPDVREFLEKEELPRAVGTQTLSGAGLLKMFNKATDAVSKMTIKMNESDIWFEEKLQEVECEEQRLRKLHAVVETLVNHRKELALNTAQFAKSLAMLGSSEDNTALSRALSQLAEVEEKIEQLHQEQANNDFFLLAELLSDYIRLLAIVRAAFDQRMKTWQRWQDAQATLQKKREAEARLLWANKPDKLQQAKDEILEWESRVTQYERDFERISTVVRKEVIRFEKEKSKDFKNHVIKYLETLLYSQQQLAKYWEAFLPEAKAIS
UniProt O60493: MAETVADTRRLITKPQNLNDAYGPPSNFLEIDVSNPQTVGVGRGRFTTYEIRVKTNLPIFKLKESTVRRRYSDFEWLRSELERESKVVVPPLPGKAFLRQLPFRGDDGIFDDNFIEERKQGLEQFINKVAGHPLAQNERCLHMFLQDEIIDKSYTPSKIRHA
UniProt Q641Q2: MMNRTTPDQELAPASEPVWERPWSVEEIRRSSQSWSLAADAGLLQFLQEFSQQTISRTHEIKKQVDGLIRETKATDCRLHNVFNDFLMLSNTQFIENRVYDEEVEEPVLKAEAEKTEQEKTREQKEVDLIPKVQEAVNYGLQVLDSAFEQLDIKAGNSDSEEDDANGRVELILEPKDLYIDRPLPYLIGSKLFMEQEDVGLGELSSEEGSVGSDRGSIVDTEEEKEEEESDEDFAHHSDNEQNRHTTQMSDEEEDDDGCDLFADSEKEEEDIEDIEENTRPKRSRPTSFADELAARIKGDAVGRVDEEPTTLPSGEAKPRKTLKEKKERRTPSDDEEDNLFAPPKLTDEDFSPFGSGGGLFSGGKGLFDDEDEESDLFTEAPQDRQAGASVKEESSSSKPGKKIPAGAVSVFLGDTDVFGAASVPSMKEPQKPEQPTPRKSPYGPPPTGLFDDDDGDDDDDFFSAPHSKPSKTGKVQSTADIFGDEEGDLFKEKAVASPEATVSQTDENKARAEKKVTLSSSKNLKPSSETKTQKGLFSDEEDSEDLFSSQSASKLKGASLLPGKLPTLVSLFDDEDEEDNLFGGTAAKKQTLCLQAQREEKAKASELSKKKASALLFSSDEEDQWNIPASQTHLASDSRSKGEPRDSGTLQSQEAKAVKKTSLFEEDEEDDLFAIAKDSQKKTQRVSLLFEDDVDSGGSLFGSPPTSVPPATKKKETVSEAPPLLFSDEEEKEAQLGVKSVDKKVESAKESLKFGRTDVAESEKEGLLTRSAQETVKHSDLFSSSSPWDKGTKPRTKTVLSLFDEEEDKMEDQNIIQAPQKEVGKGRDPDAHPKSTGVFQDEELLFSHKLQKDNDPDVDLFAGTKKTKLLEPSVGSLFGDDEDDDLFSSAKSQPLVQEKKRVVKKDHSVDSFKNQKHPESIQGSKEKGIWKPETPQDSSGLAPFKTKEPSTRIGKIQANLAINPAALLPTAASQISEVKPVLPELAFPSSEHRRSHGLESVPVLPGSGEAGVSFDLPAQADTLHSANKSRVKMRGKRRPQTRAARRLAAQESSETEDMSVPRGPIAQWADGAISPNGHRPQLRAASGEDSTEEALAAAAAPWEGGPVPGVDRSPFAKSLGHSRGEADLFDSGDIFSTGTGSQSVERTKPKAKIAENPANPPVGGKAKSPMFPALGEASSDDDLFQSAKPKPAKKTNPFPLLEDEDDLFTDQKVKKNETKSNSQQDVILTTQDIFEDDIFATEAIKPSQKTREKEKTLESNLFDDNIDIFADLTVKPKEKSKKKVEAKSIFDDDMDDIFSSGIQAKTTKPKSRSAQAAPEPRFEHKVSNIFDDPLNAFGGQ
UniProt P63027: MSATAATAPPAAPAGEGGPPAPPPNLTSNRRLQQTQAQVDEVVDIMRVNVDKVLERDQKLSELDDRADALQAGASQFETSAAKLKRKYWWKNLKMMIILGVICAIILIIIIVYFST
UniProt Q14677: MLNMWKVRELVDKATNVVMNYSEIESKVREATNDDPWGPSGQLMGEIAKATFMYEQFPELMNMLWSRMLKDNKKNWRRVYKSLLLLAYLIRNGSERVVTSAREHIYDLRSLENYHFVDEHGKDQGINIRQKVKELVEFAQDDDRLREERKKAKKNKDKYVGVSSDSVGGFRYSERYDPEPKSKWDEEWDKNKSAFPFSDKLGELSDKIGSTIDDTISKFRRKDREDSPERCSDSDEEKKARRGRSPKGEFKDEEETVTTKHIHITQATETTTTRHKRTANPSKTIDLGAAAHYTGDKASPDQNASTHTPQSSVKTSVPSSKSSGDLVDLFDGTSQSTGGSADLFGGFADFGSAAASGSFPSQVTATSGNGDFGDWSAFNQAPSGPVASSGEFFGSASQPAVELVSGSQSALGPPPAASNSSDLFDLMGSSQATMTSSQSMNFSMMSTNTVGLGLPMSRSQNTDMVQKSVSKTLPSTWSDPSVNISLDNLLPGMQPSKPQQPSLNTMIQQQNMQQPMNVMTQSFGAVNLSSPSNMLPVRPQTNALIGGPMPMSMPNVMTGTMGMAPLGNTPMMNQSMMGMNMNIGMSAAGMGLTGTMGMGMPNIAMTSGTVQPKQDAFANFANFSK

The target in assay [3] is mycBirA*–Rab11a (UniProt P62491). This is another data set of the same source.
Assay [4] deals with T1, mycBirA*–Rab25. The source holds these as a separate data set.
The next assay deals with mycBirA*–Rab4a (UniProt P20338).

Like-named read-outs stand apart in the source and are kept apart here. These are yes or no findings as the source states them, for the method shown. In cells and extracts the contact can be indirect. A yes stands for co-enrichment or nearness to the bait. Other partners may have been found. For some of these results: Sequences can lack the tags named with a protein.

On to RabGAP1L (from UniProt Q5R372 1-815), for which the binding result in the assay with mycBirA*–Rab11a [1] and in the assay with mycBirA*–Rab25 [2] was “binds” each time.
As for ARFGAP1 (from UniProt Q8N6T3 1-406), the binding entry in the assay with mycBirA*–Rab11a [1] and in the assay with mycBirA*–Rab25 [2] was “binds” throughout.
On to DENND4C (from UniProt Q5VZ89 1-1909), for which the binding result with mycBirA*–Rab11a [1] is given as “binds”.
In the case of Rab11FIP2 (from UniProt Q7L804 1-512), the binding entry with mycBirA*–Rab11a [1] and in the assay with mycBirA*–Rab25 [2] was “binds” each time.
Consider ARFGEF1 (from UniProt Q9Y6D6 1-1849), for which, in the assay with mycBirA*–Rab11a [1], the binding result is on record as “binds”.
The same measure, in the same setting: the value for SNAP23 (from UniProt O00161 1-211) was “binds”.
Same read-out and setting: the value for PI4KB (from UniProt Q9UBF8 1-816) was “binds”.
On the same count and under the same terms, in the case of SNX1 (from UniProt Q13596 1-522) it was “binds”.
Turning to SNX3 (from UniProt O60493 1-162), in the assay with mycBirA*–Rab25 [2], the binding result is on record as “binds”.
For Arl13b (from UniProt Q3SXY8 1-428), the binding entry with mycBirA*–Rab11a [1] and with mycBirA*–Rab25 [2] was “binds” in each case.
Consider FAM21A (from UniProt Q641Q2 1-1341), for which the binding result in the assay with mycBirA*–Rab11a [1] and with mycBirA*–Rab25 [2] was “binds” throughout.
For VAMP2 (from UniProt P63027 1-116), the binding result with mycBirA*–Rab11a [1] and with mycBirA*–Rab25 [2] was “binds” in each case.
As for “clathrin interactor 1 (from UniProt Q14677 1-625)”, the binding entry with mycBirA*–Rab11a [1] and with mycBirA*–Rab25 [2] was “binds” throughout.
In the case of EXOC3 (from UniProt O60645 1-745), the binding entry with mycBirA*–Rab11a [1] and with mycBirA*–Rab25 [2] was “binds” throughout.

B1: TBC1D2B (protein, UniProt Q9UPU7 1-963)
chain: MPGAGARAEEGGGGGEGAAQGAAAEPGAGPAREPARLCGYLQKLSGKGPLRGYRSRWFVFDARRCYLYYFKSPQDALPLGHLDIADACFSYQGPDEAAEPGTEPPAHFQVHSAGAVTVLKAPNRQLMTYWLQELQQKRWEYCNSLDMVKWDSRTSPTPGDFPKGLVARDNTDLIYPHPNASAEKARNVLAVETVPGELVGEQAANQPAPGHPNSINFYSLKQWGNELKNSMSSFRPGRGHNDSRRTVFYTNEEWELLDPTPKDLEESIVQEEKKKLTPEGNKGVTGSGFPFDFGRNPYKGKRPLKDIIGSYKNRHSSGDPSSEGTSGSGSVSIRKPASEMQLQVQSQQEELEQLKKDLSSQKELVRLLQQTVRSSQYDKYFTSSRLCEGVPKDTLELLHQKDDQILGLTSQLERFSLEKESLQQEVRTLKSKVGELNEQLGMLMETIQAKDEVIIKLSEGEGNGPPPTVAPSSPSVVPVARDQLELDRLKDNLQGYKTQNKFLNKEILELSALRRNAERRERDLMAKYSSLEAKLCQIESKYLILLQEMKTPVCSEDQGPTREVIAQLLEDALQVESQEQPEQAFVKPHLVSEYDIYGFRTVPEDDEEEKLVAKVRALDLKTLYLTENQEVSTGVKWENYFASTVNREMMCSPELKNLIRAGIPHEHRSKVWKWCVDRHTRKFKDNTEPGHFQTLLQKALEKQNPASKQIELDLLRTLPNNKHYSCPTSEGIQKLRNVLLAFSWRNPDIGYCQGLNRLVAVALLYLEQEDAFWCLVTIVEVFMPRDYYTKTLLGSQVDQRVFRDLMSEKLPRLHGHFEQYKVDYTLITFNWFLVVFVDSVVSDILFKIWDSFLYEGPKVIFRFALALFKYKEEEILKLQDSMSIFKYLRYFTRTILDARKLISISFGDLNPFPLRQIRNRRAYHLEKVRLELTELEAIREDFLRERDTSPDKGELVSDEEEDT
As for B1, the binding result with mycBirA*–Rab11a [3] and with mycBirA*–Rab25 [4] was “binds” each time.

B2: TBC1D22B (protein, UniProt Q9NU19 1-505)
chain: MAAENSKQFWKRSAKLPGSIQPVYGAQHPPLDPRLTKNFIKERSKVNTVPLKNKKASSFHEFARNTSDAWDIGDDEEEDFSSPSFQTLNSKVALATAAQVLENHSKLRVKPERSQSTTSDVPANYKVIKSSSDAQLSRNSSDTCLRNPLHKQQSLPLRPIIPLVARISDQNASGAPPMTVREKTRLEKFRQLLSSQNTDLDELRKCSWPGVPREVRPITWRLLSGYLPANTERRKLTLQRKREEYFGFIEQYYDSRNEEHHQDTYRQIHIDIPRTNPLIPLFQQPLVQEIFERILFIWAIRHPASGYVQGINDLVTPFFVVFLSEYVEEDVENFDVTNLSQDMLRSIEADSFWCMSKLLDGIQDNYTFAQPGIQKKVKALEELVSRIDEQVHNHFRRYEVEYLQFAFRWMNNLLMRELPLRCTIRLWDTYQSEPEGFSHFHLYVCAAFLIKWRKEILDEEDFQGLLMLLQNLPTIHWGNEEIGLLLAEAYRLKYMFADAPNHYRR
For B2, the binding result in the assay with mycBirA*–Rab11a [3] and with mycBirA*–Rab25 [4] was “binds” throughout.

B3: AP1B1 (protein, UniProt Q10567 1-949)
chain: MTDSKYFTTTKKGEIFELKAELNSDKKEKKKEAVKKVIASMTVGKDVSALFPDVVNCMQTDNLELKKLVYLYLMNYAKSQPDMAIMAVNTFVKDCEDPNPLIRALAVRTMGCIRVDKITEYLCEPLRKCLKDEDPYVRKTAAVCVAKLHDINAQLVEDQGFLDTLKDLISDSNPMVVANAVAALSEIAESHPSSNLLDLNPQSINKLLTALNECTEWGQIFILDCLANYMPKDDREAQSICERVTPRLSHANSAVVLSAVKVLMKFMEMLSKDLDYYGTLLKKLAPPLVTLLSAEPELQYVALRNINLIVQKRPEILKHEMKVFFVKYNDPIYVKLEKLDIMIRLASQANIAQVLAELKEYATEVDVDFVRKAVRAIGRCAIKVEQSAERCVSTLLDLIQTKVNYVVQEAIVVIKDIFRKYPNKYESVIATLCENLDSLDEPEARAAMIWIVGEYAERIDNADELLESFLEGFHDESTQVQLQLLTAIVKLFLKKPTETQELVQQVLSLATQDSDNPDLRDRGYIYWRLLSTDPVAAKEVVLAEKPLISEETDLIEPTLLDELICYIGTLASVYHKPPSAFVEGGRGVVHKSLPPRTASSESAESPETAPTGAPPGEQPDVIPAQGDLLGDLLNLDLGPPVSGPPLATSSVQMGAVDLLGGGLDSLMGDEPEGIGGTNFVAPPTAAVPANLGAPIGSGLSDLFDLTSGVGTLSGSYVAPKAVWLPAMKAKGLEISGTFTRQVGSISMDLQLTNKALQVMTDFAIQFNRNSFGLAPAAPLQVHAPLSPNQTVEISLPLSTVGSVMKMEPLNNLQVAVKNNIDVFYFSTLYPLHILFVEDGKMDRQMFLATWKDIPNENEAQFQIRDCPLNAEAASSKLQSSNIFTVAKRNVEGQDMLYQSLKLTNGIWVLAELRIQPGNPSCTDLELSLKCRAPEVSQHVYQAYETILKN
Turning to B3, in the assay with mycBirA*–Rab4a, the binding entry was “binds”.

B4: EHD1 (protein, UniProt Q9H4M9 1-534)
chain: MFSWVSKDARRKKEPELFQTVAEGLRQLYAQKLLPLEEHYRFHEFHSPALEDADFDNKPMVLLVGQYSTGKTTFIRHLIEQDFPGMRIGPEPTTDSFIAVMHGPTEGVVPGNALVVDPRRPFRKLNAFGNAFLNRFMCAQLPNPVLDSISIIDTPGILSGEKQRISRGYDFAAVLEWFAERVDRIILLFDAHKLDISDEFSEVIKALKNHEDKIRVVLNKADQIETQQLMRVYGALMWSLGKIINTPEVVRVYIGSFWSHPLLIPDNRKLFEAEEQDLFKDIQSLPRNAALRKLNDLIKRARLAKVHAYIISSLKKEMPNVFGKESKKKELVNNLGEIYQKIEREHQISPGDFPSLRKMQELLQTQDFSKFQALKPKLLDTVDDMLANDIARLMVMVRQEESLMPSQVVKGGAFDGTMNGPFGHGYGEGAGEGIDDVEWVVGKDKPTYDEIFYTLSPVNGKITGANAKKEMVKSKLPNTVLGKIWKLADVDKDGLLDDEEFALANHLIKVKLEGHELPADLPPHLVPPSKRRHE
For the molecule B4, the binding entry with mycBirA*–Rab11a [3] and with mycBirA*–Rab25 [4] was “binds” each time.

B5: WDR44 (protein, UniProt Q5JSH3 1-913)
chain: MASESDTEEFYDAPEDVHLGGGYPVGSPGKVGLSTFKETENTAYKVGNESPVQELKQDVSKKIIESIIEESQKVLQLEDDSLDSKGKELSDQATASPIVARTDLSNIPGLLAIDQVLPEESQKAESQNTFEETELELKKCFPSDETCEKPVDETTKLTQTSSTEQLNVLETETEVLNKEAVEVKGGGDVLEPVSSDSLSTKDFAAVEEVAPAKPPRHLTPEPDIVASTKKPVPARPPPPTNFPPPRPPPPSRPAPPPRKRKSELEFETLKTPDIDVPKENITSDSLLTASMASESTVKDSQPSLDLASATSGDKIVTAQENGKAPDGQTVAGEVMGPQRPRSNSGRELTDEEILASVMIKNLDTGEEIPLSLAEEKLPTGINPLTLHIMRRTKEYVSNDAAQSDDEEKLQSQPTDTDGGRLKQKTTQLKKFLGKSVKRAKHLAEEYGERAINKVKSVRDEVFHTDQDDPSSSDDEGMPYTRPVKFKAAHGFKGPYDFDQIKVVQDLSGEHMGAVWTMKFSHCGRLLASAGQDNVVRIWALKNAFDYFNNMRMKYNTEGRVSPSPSQESLSSSKSDTDTGVCSGTDEDPDDKNAPFRQRPFCKYKGHTADLLDLSWSKNYFLLSSSMDKTVRLWHISRRECLCCFQHIDFVTAIAFHPRDDRYFLSGSLDGKLRLWNIPDKKVALWNEVDGQTKLITAANFCQNGKYAVIGTYDGRCIFYDTEHLKYHTQIHVRSTRGRNKVGRKITGIEPLPGENKILVTSNDSRIRLYDLRDLSLSMKYKGYVNSSSQIKASFSHDFTYLVSGSEDKYVYIWSTYHDLSKFTSVRRDRNDFWEGIKAHNAVVTSAIFAPNPSLMLSLDVQSEKSEGNEKSEDAEVLDATPSGIMKTDNTEVLLSADFTGAIKVFVNKRKNVS
On to B5, for which the binding result with mycBirA*–Rab11a [3] and with mycBirA*–Rab25 [4] was “binds” each time.

The record behind these values is paper PMC10323252.
